Values from PubChem BioAssay AID1259308 (NCATS, 2017).
Test: 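Knock-downs that increase output of a recombinant reporter protein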 (primary screen). System: human HEK293 embryonic kidney cells stably expressing firefly luciferase (HEK-CMV-Luc2-Hygro). Knock-down reagent: single siRNA against human genes, 0.8 pmol siRNA per well. Duration: 72 h. Measured: 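Reporter luminescence and viable-cell signal on separate replicate plates, given as percent of non-targeting control and median/MAD z-scores, plus per-cell luciferase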. Scale: total luciferase, z-score and total luciferase, % of control: higher = more reporter protein produced; luciferase per cell, z-score: higher = more reporter output per viable cell. Call rule: 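Active when the median/MAD z-score for overall luciferase is greater than 3; a gene was taken forward for validation with new siRNAs if at least two of its three siRNAs passed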. Calls: active = raised luciferase; inactive = no rise.
Here is an unselected part of about 59,000 reagents tested. About 1,510 of all reagents (2.6%) count as active. 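Calls use total luciferase alone and ignore viability, so some active siRNAs may act by altering cell number.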 Not all columns of the deposit are shown.

gene symbol | PubChem SID | total luciferase, z-score | total luciferase, % of control | luciferase per cell, z-score | Outcome
PASK (PAS domain containing serine/threonine kinase) | SID160735638 | 1.25 | 107 | 0.769 | inactive
PASK (PAS domain containing serine/threonine kinase) | SID160735639 | -0.739 | 67.2 | -0.776 | inactive
PASK (PAS domain containing serine/threonine kinase) | SID160735640 | -0.251 | 76.9 | -0.383 | inactive
PLEKHS1 (pleckstrin homology domain containing S1) | SID160734964 | -0.691 | 68.1 | -0.528 | inactive
PLEKHS1 (pleckstrin homology domain containing S1) | SID160749832 | 0.808 | 98 | 0.375 | inactive
PLEKHS1 (pleckstrin homology domain containing S1) | SID160749833 | 0.849 | 98.8 | 0.502 | inactive
CHCHD10 (coiled-coil-helix-coiled-coil-helix domain containing 10) | SID160733330 | -2.72 | 27.8 | -2.78 | inactive
CHCHD10 (coiled-coil-helix-coiled-coil-helix domain containing 10) | SID160767084 | -0.996 | 62.1 | 1.54 | inactive
CHCHD10 (coiled-coil-helix-coiled-coil-helix domain containing 10) | SID160767085 | -0.422 | 73.5 | -0.0162 | inactive
PDPK1 (3-phosphoinositide dependent protein kinase 1) | SID160714076 | 1.54 | 113 | 2.67 | inactive
PDPK1 (3-phosphoinositide dependent protein kinase 1) | SID160714077 | 0.000376 | 81.9 | -0.212 | inactive
PDPK1 (3-phosphoinositide dependent protein kinase 1) | SID160714078 | -0.0466 | 81 | 0.146 | inactive

Continued; the last 2 above are carried over.
gene symbol | PubChem SID | total luciferase, z-score | total luciferase, % of control | luciferase per cell, z-score | Outcome
PDPK1 (3-phosphoinositide dependent protein kinase 1) | SID160714077 | 0.000376 | 81.9 | -0.212 | inactive
PDPK1 (3-phosphoinositide dependent protein kinase 1) | SID160714078 | -0.0466 | 81 | 0.146 | inactive
IGFL3 (IGF like family member 3) | SID160733209 | 0.819 | 98.2 | -0.114 | inactive
IGFL3 (IGF like family member 3) | SID160765896 | -0.252 | 76.9 | -0.411 | inactive
IGFL3 (IGF like family member 3) | SID160765897 | -0.689 | 68.2 | -0.189 | inactive
HINT2 (histidine triad nucleotide binding protein 2) | SID160752587 | 0.0619 | 83.1 | 0.199 | inactive
HINT2 (histidine triad nucleotide binding protein 2) | SID160752588 | 0.402 | 89.9 | 0.509 | inactive
HINT2 (histidine triad nucleotide binding protein 2) | SID160752589 | 0.101 | 83.9 | 0.764 | inactive
GJB7 (gap junction protein beta 7) | SID160726665 | 0.121 | 84.3 | -0.372 | inactive
GJB7 (gap junction protein beta 7) | SID160726666 | -0.245 | 77 | -0.951 | inactive
GJB7 (gap junction protein beta 7) | SID160765442 | 1.56 | 113 | 1.62 | inactive
GJB7 (gap junction protein beta 7) | SID160765443 | -0.0264 | 81.4 | 0.188 | inactive
GJB7 (gap junction protein beta 7) | SID160765444 | 1.46 | 111 | 1.22 | inactive
GJB7 (gap junction protein beta 7) | SID160771746 | 0.253 | 86.9 | -0.217 | inactive
